Here are results for four compounds from patent publication US7132012B2, “Phthalocyanine compound, ink, ink jet recording method and image forming method” (Fuji Photo Film Co., Ltd., priority 2004, dated 2006).

The nature of this series: Color toner OHP image: transparency (spectral transmittance at 450 nm).

Turning to C.I. Solvent Blue 38, the Transparency result is “x (less than 70%, x)”. The same measure for C.I. Solvent Blue 70: “x (less than 70%, x)”; for `CNc1ccc(O)c2c1C(=O)c1c(O)ccc(NC)c1C2=O` [Comparative dye 5]: “Δ (70 to less than 80%, Δ)”. The same measure for `Cc1ccc(Nc2ccc(Nc3ccc(C)cc3)c3c2C(=O)c2c(Nc4ccc(C)cc4)ccc(Nc4ccc(C)cc4)c2C3=O)cc1` [Comparative dye 6]: “Δ (70 to less than 80%, Δ)”.
